# Laboratory results published in paper PMC10413709.
# B1: Myc-OGT full-length (protein, UniProt O15294 1-1046)
# chain: MASSVGNVADSTEPTKRMLSFQGLAELAHREYQAGDFEAAERHCMQLWRQEPDNTGVLLLLSSIHFQCRRLDRSAHFSTLAIKQNPLLAEAYSNLGNVYKERGQLQEAIEHYRHALRLKPDFIDGYINLAAALVAAGDMEGAVQAYVSALQYNPDLYCVRSDLGNLLKALGRLEEAKACYLKAIETQPNFAVAWSNLGCVFNAQGEIWLAIHHFEKAVTLDPNFLDAYINLGNVLKEARIFDRAVAAYLRALSLSPNHAVVHGNLACVYYEQGLIDLAIDTYRRAIELQPHFPDAYCNLANALKEKGSVAEAEDCYNTALRLCPTHADSLNNLANIKREQGNIEEAVRLYRKALEVFPEFAAAHSNLASVLQQQGKLQEALMHYKEAIRISPTFADAYSNMGNTLKEMQDVQGALQCYTRAIQINPAFADAHSNLASIHKDSGNIPEAIASYRTALKLKPDFPDAYCNLAHCLQIVCDWTDYDERMKKLVSIVADQLEKNRLPSVHPHHSMLYPLSHGFRKAIAERHGNLCLDKINVLHKPPYEHPKDLKLSDGRLRVGYVSSDFGNHPTSHLMQSIPGMHNPDKFEVFCYALSPDDGTNFRVKVMAEANHFIDLSQIPCNGKAADRIHQDGIHILVNMNGYTKGARNELFALRPAPIQAMWLGYPGTSGALFMDYIITDQETSPAEVAEQYSEKLAYMPHTFFIGDHANMFPHLKKKAVIDFKSNGHIYDNRIVLNGIDLKAFLDSLPDVKIVKMKCPDGGDNADSSNTALNMPVIPMNTIAEAVIEMINRGQIQITINGFSISNGLATTQINNKAATGEEVPRTIIVTTRSQYGLPEDAIVYCNFNQLYKIDPSTLQMWANILKRVPNSVLWLLRFPAVGEPNIQQYAQNMGLPQNRIIFSPVAPKEEHVRRGQLADVCLDTPLCNGHTTGMDVLWAGTPMVTMPGETLASRVAASQLTCLGCLELIAKNRQEYEDIAVKLGTDLEYLKKVRGKVWKQRISSPLFNTKQYTMELERLYLQMWEHYAAGNKPDHMIKPVEVTESA
# Molecular target: GFP-EIF3H truncation construct with the JAB/MP domain
# Assay: co-IP; HEK293 cells transfected with 2 µg Myc-OGT and GFP-EIF3H full-length or mutants; NP-40 lysis buffer; precipitated with GFP antibody, detected by Myc antibody
binder,measurement,value
B1,binding,binds

# No constants are given. Whether binding was seen depends on the method and setting. In cells and extracts the contact can be indirect. Binding can be weak; no strength is given. Where a sequence is shown, tags or fusion partners need not be part of it.
